# In PubChem BioAssay AID445 (National Center for Advancing Translational Sciences (NCATS), 2006):
# Some of the results follow. Further columns of the screen follow, without active or inactive calls. Most of these compounds were active or inconclusive in the main read-out, so they are no random draw. Words in brackets tell the shape of the fitted curve; partial curves, single points and poor fits give uncertain potencies.
# Test: IkB Signaling
# Conditions: ABC-DLBCL IkBa-CBG/CBR dual luciferase ratio (green luciferase fused to IkBa over red control in OCI-Ly3 lymphoma cells), 4 h
# Text: NIH Molecular Libraries Screening Centers Network [MLSCN]
# NIH Chemical Genomics Center [NCGC]
# Nuclear factor kappa-B (NF-kappa-B) plays an important role in normal B cell development and survival. Diffuse large B cell lymphoma (DLBCL) is the most commonly observed type of non-Hodgkin's lymphoma. Gene expression analysis has identified an activated B cell-like subtype of DLBCL (ABC-DLBCL) which expresses known NF-kappa-B target genes. […] However, targets upstream of IKK have been largely unexplored and so nodes upstream of IKK in the NF-kappa-B pathway remain untested due to the lack of chemical probes.
# A cell-sensor assay for I-kappa-B-alpha stabilization was developed with NIH investigator Dr. R. Eric Davis in Dr. Louis M. Staudt's laboratory. The assay uses green (CBG68) and red (CBR) emitting beetle luciferases [Chroma-Glo(TM) developed by Promega Corp.] where the green luciferase is fused to I-kappa-B-alpha and the red luciferase is present in its native state. Both luciferase genes are stably present in the OCI-Ly3 human ABC DLBCL cell line, but their expression is under the control of tetracycline-inducible promoters. Following the addition of doxycycline to induce expression of the luciferases, the green luminescence in control cultures rises only slowly because the CBG fusion partner I-kappa-B-alpha is targeted by IKK activity for rapid degradation. In contrast, green luminescence rises rapidly in the presence of proteasome inhibitors or IKK inhibitors. The rise in red luminescence of CBR is not affected by proteasome or IKK inhibitors, and serves as normalization for cell number and nonspecific effects. Compounds were screened as a concentration-titration series that ranged from 57 uM to 0.7 nM.
# NCGC Assay Protocol Summary:
# Cells were seeded in 1536-well plates at 5000 cells/3ul in IMDM medium containing 0.5% FBS, w/o phenol red, L-glutamine, 25 mM HEPES, 3 mg/ml sodium bicarbonate. After centrifugation for 1 min. at 1000 rpm, 23 nl of compounds or DMSO were delivered to each well using a pin tool. Then 1ul 80ng/ml doxycycline was dispensed into white solid 1536-well plates and the plates were incubated at 37C/5% C02 in a cell incubator for 4 hrs. Then 4 ul Chroma-Glo luminescent substrate mix (Promega) was added to each well. The plate was incubated at R.T. for 10-15 min. The plates were measured on a ViewLux plate reader for green luminescence (540/20 nm filter) and red luminescence (618/8 nm filter). The green and red luminescent signals were corrected for red and green luminescence filter overlap using previously determined filter calibration constants (determined using the procedure outlined in the Promega Technical Manual). The %Activity was determined from the ratio of corrected green/red luminescent values. Green luminescent and ratio %Activity was determined by normalizing to the difference in signal between basal cells (0% Activity) and cells incubated with 10 uM of the proteasome inhibitor MG-132 (100% Activity). Red luminescent %Activity was normalized to the difference between red luminesence in basal cells (0%Activity) and zero luminescence (-100% Activity).
# Concentration-response curves were fitted to the signals arising from the green luminescence (I-kappa-B-alpha-luciferase fusion; IkB-luc) and the red luminescence (unfused luciferase; luc) as well as the calculated ratio. The concentration-effect curves were then classified based on curve quality (r2), response magnitude and degree of measured activity. Compounds were then categorized based on their concentration-response curves for all three datasets (Ikb-luc, luc and ratio).
# Keywords: IKK, I-kappa-B, IkB, IkBa, cytotoxicity, luminescence, MLSMR, MLSCN, NIH Roadmap, qHTS, NCGC
# [1] = measured here: IkB-luc green channel
# [2] = measured here: control luc red channel
Structure (SMILES),AC50 [1],AC50 [2]
O=[As](O)(O)c1ccc(Cc2ccc([As](=O)(O)O)cc2)cc1,"1.58 µM [rising, single point]","3.98 µM [falling, partial curve]"
Oc1cc(Cl)c(Cl)c(Cl)c1,–,"7.94 µM [falling, full curve]"
C[C@@]12CC[C@H](O)C[C@@H]1CC[C@H]1[C@H]2C[C@@H](O)[C@]2(C)[C@@H](C3=CC(=O)OC3)CC[C@@]12O,–,"3.16 µM [falling, partial curve]"
COc1ccc(-n2c(/C=C/c3cccc(F)c3)nc3ccccc3c2=O)cc1Cl,–,"25.1 µM [falling, partial curve]"
Cc1cccc(CN2C(=O)CN=C(c3ccccc3)c3ccccc32)c1,–,"3.98 µM [falling, partial curve]"
CCCCCCn1c(N)c(C(=O)NCCN2CCOCC2)c2nc3ccccc3nc21,–,"31.6 µM [falling, single point]"
Cn1ncnc2c(=O)n(C)c(=O)nc1-2,"20 µM [rising, single point]","1.26 µM [falling, full curve]"
CN(C)C1(c2nnnn2CCOC(=O)Nc2ccc(Cl)cc2)CCCCC1,–,"15.8 µM [falling, partial curve]"
CC(=O)[O-].CC(=O)[O-].O.O.[Cd+2],"3.16 µM [rising, partial curve]",–
COc1cccc(C2SCC(=O)Nc3c2c(C)nn3-c2ccc(C)c(Cl)c2)c1OC (stereo not drawn),–,"25.1 µM [falling, single point]"
C[C@H]1CCC[C@H](O)CCCCCc2cc(O)cc(O)c2C(=O)O1,–,"15.8 µM [falling, partial curve]"
O=C(c1ccccc1)[C@H]1[C@H](c2ccccc2[N+](=O)[O-])N1C1CCCCC1 (stereo partly drawn),"5.01 µM [rising, partial curve]",–
Oc1ccc2c3c1O[C@H]1c4c(c5ccccc5n4Cc4ccccc4)C[C@]4(O)[C@H](C2)N(CC2CC2)CC[C@@]314,–,"39.8 µM [falling, partial curve]"
N#CC1=C(N)Oc2c(c(=O)oc3ccccc23)C1c1cccnc1 (stereo not drawn),–,"7.94 µM [falling, partial curve]"
O=c1c2ccccc2nc(/C=C/c2ccccc2F)n1-c1cccc(O)c1,–,"5.01 µM [falling, single point]"
Cc1cccc(-c2nn3c(=O)cc(CN4CCN(C(=O)COc5ccc(Cl)cc5)CC4)nc3s2)c1,–,"20 µM [falling, partial curve, poor fit]"
O=S1(=O)N(Cc2ccccc2Cl)CCCN1Cc1ccccc1Cl,–,"15.8 µM [falling, partial curve]"
COc1ccc(NC(=O)CCc2nc(C3=CCN(Cc4cccc(Cl)c4)CC3)no2)c(OC)c1,–,"39.8 µM [falling, single point]"
C[C@H]1CCCC=CC2C[C@H](O)C[C@@H]2[C@H](O)/C=C\C(=O)O1 (stereo partly drawn),–,"0.0251 µM [falling, full curve]"
Cc1ccccc1OCC(=O)N1CCN(CCc2ccccn2)CC1,–,"5.01 µM [falling, partial curve]"
CC(C)CC(C)Nc1ccc(Nc2ccccc2)cc1 (stereo not drawn),–,"31.6 µM [falling, partial curve, poor fit]"

# Two entries from above, set out differently:
Structure (SMILES) | AC50 [1] | AC50 [2]
COc1ccc(-n2c(/C=C/c3cccc(F)c3)nc3ccccc3c2=O)cc1Cl | – | 25.1 µM [falling, partial curve]
O=C(c1ccccc1)[C@H]1[C@H](c2ccccc2[N+](=O)[O-])N1C1CCCCC1 (stereo partly drawn) | 5.01 µM [rising, partial curve] | –

# (further entries)

Structure (SMILES),AC50 [1],AC50 [2]
CN(C)c1ccc(N=Nc2ccccc2)cc1,–,"12.6 µM [falling, partial curve]"
Cc1ccccc1-n1c(/C=C/c2c(C)[nH]c3ccccc23)nc2ccccc2c1=O,–,"7.94 µM [falling, partial curve]"
NC[C@@H](CC(=O)O)c1ccc(Cl)cc1,"2 µM [rising, full curve]",–
COc1ccc(OCC(=O)N2CCN(CCc3ccncc3)CC2)cc1,–,"0.1 µM [falling, full curve, poor fit]"
CC(C)(c1ccc(OCC2CO2)cc1)c1ccc(OCC2CO2)cc1 (stereo not drawn),"31.6 µM [rising, partial curve]","12.6 µM [falling, partial curve]"
CC[C@@](O)(C(=O)O)c1cc2n(c(=O)c1CO)Cc1cc3ccccc3nc1-2,–,"3.16 µM [falling, single point]"
CN1CCN(c2ccc([N+](=O)[O-])c3[nH]o[n+](=O)c23)CC1,–,"6.31 µM [falling, single point]"
Cc1c(C(c2ccc(Br)cc2)c2c(O)c3ccccc3oc2=O)c(=O)n(-c2ccccc2)n1C (stereo not drawn),–,"7.94 µM [falling, partial curve]"
C=C(C)CN1CC[C@@]23c4c5ccc(O)c4O[C@H]2c2[nH]c4ccccc4c2C[C@]3(O)[C@@H]1C5,–,"39.8 µM [falling, single point]"
CC(=O)c1ccccc1NC(=O)C1C2CCC(O2)C1C(=O)O (stereo not drawn),"25.1 µM [rising, single point]",–
Fc1ccc(C(OCCN2CCN(CCCc3ccccc3)CC2)c2ccc(F)cc2)cc1,–,"39.8 µM [falling, partial curve]"
CN1CCC(O)(c2ccccc2)C(C(=O)c2ccccc2)C1 (stereo not drawn),–,"31.6 µM [falling, partial curve]"
C=C(C)[C@H]1Cc2c(ccc3c2O[C@@H]2COc4cc(OC)c(OC)cc4[C@@H]2C3=O)O1,"3.98 µM [rising, partial curve]",–
NNC(=O)c1ccc(O)cc1,–,"0.794 µM [falling, full curve]"
CCCC12CN3CC(C)(CN(C1)C3c1c(C)[nH]c(=O)[nH]c1=O)C2=O (stereo not drawn),–,"3.16 µM [rising, single point]"
Cc1ccc(-c2nn3c(=O)cc(CN4CCN(C(=O)COc5ccc(C)c(C)c5)CC4)nc3s2)cc1,–,"39.8 µM [falling, single point]"
CCOc1cc2[nH]c(=S)n(CCCC(=O)N3CCC4(CC3)OCCO4)c(=O)c2cc1OCC,–,"5.01 µM [falling, partial curve]"
CCCC1=Nc2cc(C(=O)NCCCN(CC)CC)ccc2Sc2ccccc21,–,"31.6 µM [falling, single point]"
COc1ccc(Br)cc1C1SCC(=O)Nc2c1c(C)nn2-c1ccccc1C (stereo not drawn),–,"6.31 µM [rising, single point]"
CCN(CC)C(=O)c1ccc(NC(=O)c2ccc(-c3nn(C)c(=O)c4ccccc34)cc2)cc1,–,"31.6 µM [falling, single point]"
Cc1ccc(-c2nc(CN3C(=O)CN=C(c4ccccc4)c4ccccc43)c(C)o2)cc1,–,"15.8 µM [falling, single point]"

Structure (SMILES),AC50 [1],AC50 [2]
COc1ccccc1C1SCC(=O)Nc2c1c(C)nn2-c1cccc(C)c1 (stereo not drawn),–,"25.1 µM [falling, single point]"
COc1cccc(NC(=O)c2cccn(Cc3ccccc3C)c2=O)c1,–,"20 µM [falling, single point]"
Cc1ccc(Cn2cccc(C(=O)Nc3ccc4c(c3)OCCO4)c2=O)cc1,–,"25.1 µM [falling, partial curve]"
CCOc1ccc2nc(NC(=O)c3cccn(Cc4ccccc4Cl)c3=O)sc2c1,–,"3.98 µM [rising, partial curve, poor fit]"
O=C1CS[C@@H](c2ccccc2Cl)c2cc(Cl)ccc2N1,–,"39.8 µM [falling, single point]"
Cc1ccccc1CN1C(=O)C(C)N=C(c2ccccc2)c2ccccc21 (stereo not drawn),–,"15.8 µM [falling, partial curve]"
CCOC(=O)C(O)(c1ccc(N)c(OC)c1)C(F)(F)F (stereo not drawn),–,"3.98 µM [falling, full curve]"
Cc1ccc(C(=O)Nc2ccccc2)cc1S(=O)(=O)N1CCCC1,–,"31.6 µM [falling, single point]"
CC(C)(O)/C=C\C(=O)[C@](C)(O)[C@H]1[C@H](O)C[C@]2(C)[C@@H]3CC=C4[C@@H](C=C(O)C(=O)C4(C)C)[C@]3(C)C(=O)C[C@@]12C,"1.58 µM [rising, partial curve]","0.501 µM [falling, full curve]"
Cn1cc(C(=O)C(=O)N[C@H]2CN3CCC2CC3)c2ccccc21,–,"1.58 µM [falling, full curve]"
Cc1ccc(OCC(=O)N2CCN(CCc3ccncc3)CC2)cc1,–,"2 µM [falling, single point]"
COc1ccc(OCC(=O)N2CCN(Cc3ccc(SC)cc3)CC2)cc1,–,"15.8 µM [falling, partial curve]"
COc1ccc2c(c[n+](C)c3c4cc5c(cc4ccc23)OCO5)c1OC,"7.94 µM [falling, full curve]","6.31 µM [falling, full curve]"
c1ccc2c(c1)[I+]c1ccccc1-2,"3.98 µM [rising, full curve]","15.8 µM [falling, partial curve]"
O=c1oc2ccccc2c(O)c1Cc1c(O)c2ccccc2oc1=O,–,"0.2 µM [falling, full curve]"
Cc1nccc2c1[nH]c1ccccc12,–,"31.6 µM [falling, partial curve]"
COc1cccc(-c2nn3c(=O)cc(CN4CCN(C(=O)COc5ccccc5C)CC4)nc3s2)c1,–,"31.6 µM [falling, single point]"
CC(C)(Cc1c[nH]c2ccc(Cl)cc12)NCCOc1ccccc1OCC1CC1,–,"31.6 µM [falling, partial curve]"
CCCCn1c(=O)c(C(=O)Nc2ccccc2S(N)(=O)=O)c(O)c2ccccc21,–,"3.98 µM [falling, partial curve]"
CC[C@@]1(O)C(=O)OCc2c1cc1n(c2=O)Cc2cc3c(NC(=O)CN)cccc3nc2-1,–,"3.16 µM [falling, partial curve]"

# Structures from the list above that have four or more nitrogen atoms (11):
Structure (SMILES),AC50 [1],AC50 [2]
CCCCCCn1c(N)c(C(=O)NCCN2CCOCC2)c2nc3ccccc3nc21,–,"31.6 µM [falling, single point]"
Cn1ncnc2c(=O)n(C)c(=O)nc1-2,"20 µM [rising, single point]","1.26 µM [falling, full curve]"
CN(C)C1(c2nnnn2CCOC(=O)Nc2ccc(Cl)cc2)CCCCC1,–,"15.8 µM [falling, partial curve]"
Cc1cccc(-c2nn3c(=O)cc(CN4CCN(C(=O)COc5ccc(Cl)cc5)CC4)nc3s2)c1,–,"20 µM [falling, partial curve, poor fit]"
COc1ccc(NC(=O)CCc2nc(C3=CCN(Cc4cccc(Cl)c4)CC3)no2)c(OC)c1,–,"39.8 µM [falling, single point]"
CN1CCN(c2ccc([N+](=O)[O-])c3[nH]o[n+](=O)c23)CC1,–,"6.31 µM [falling, single point]"
CCCC12CN3CC(C)(CN(C1)C3c1c(C)[nH]c(=O)[nH]c1=O)C2=O (stereo not drawn),–,"3.16 µM [rising, single point]"
Cc1ccc(-c2nn3c(=O)cc(CN4CCN(C(=O)COc5ccc(C)c(C)c5)CC4)nc3s2)cc1,–,"39.8 µM [falling, single point]"
CCN(CC)C(=O)c1ccc(NC(=O)c2ccc(-c3nn(C)c(=O)c4ccccc34)cc2)cc1,–,"31.6 µM [falling, single point]"
COc1cccc(-c2nn3c(=O)cc(CN4CCN(C(=O)COc5ccccc5C)CC4)nc3s2)c1,–,"31.6 µM [falling, single point]"
CC[C@@]1(O)C(=O)OCc2c1cc1n(c2=O)Cc2cc3c(NC(=O)CN)cccc3nc2-1,–,"3.16 µM [falling, partial curve]"
